Laboratory results taken from the supplement of paper PMC10849652.
Some of the results follow.

Chains of the proteins cited; added tags and fusions are not shown. Lines headed by an entry give the natural chain unless they say otherwise; changes in a name come on top.
UniProt Q9BY44: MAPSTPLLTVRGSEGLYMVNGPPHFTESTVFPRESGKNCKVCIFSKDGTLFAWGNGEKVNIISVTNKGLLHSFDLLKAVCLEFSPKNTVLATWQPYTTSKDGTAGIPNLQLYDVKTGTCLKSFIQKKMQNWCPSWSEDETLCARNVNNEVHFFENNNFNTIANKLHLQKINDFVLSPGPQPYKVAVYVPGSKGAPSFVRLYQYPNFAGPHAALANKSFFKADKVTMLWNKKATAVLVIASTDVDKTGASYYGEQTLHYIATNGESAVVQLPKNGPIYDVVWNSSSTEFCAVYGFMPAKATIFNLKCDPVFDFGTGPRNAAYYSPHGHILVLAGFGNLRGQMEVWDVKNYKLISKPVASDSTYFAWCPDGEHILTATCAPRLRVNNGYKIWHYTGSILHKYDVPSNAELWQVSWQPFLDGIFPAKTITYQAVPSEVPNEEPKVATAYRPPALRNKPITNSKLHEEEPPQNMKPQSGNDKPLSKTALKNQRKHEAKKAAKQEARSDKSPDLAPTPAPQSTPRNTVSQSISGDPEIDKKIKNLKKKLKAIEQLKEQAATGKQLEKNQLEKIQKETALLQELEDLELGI
UniProt Q86TI2: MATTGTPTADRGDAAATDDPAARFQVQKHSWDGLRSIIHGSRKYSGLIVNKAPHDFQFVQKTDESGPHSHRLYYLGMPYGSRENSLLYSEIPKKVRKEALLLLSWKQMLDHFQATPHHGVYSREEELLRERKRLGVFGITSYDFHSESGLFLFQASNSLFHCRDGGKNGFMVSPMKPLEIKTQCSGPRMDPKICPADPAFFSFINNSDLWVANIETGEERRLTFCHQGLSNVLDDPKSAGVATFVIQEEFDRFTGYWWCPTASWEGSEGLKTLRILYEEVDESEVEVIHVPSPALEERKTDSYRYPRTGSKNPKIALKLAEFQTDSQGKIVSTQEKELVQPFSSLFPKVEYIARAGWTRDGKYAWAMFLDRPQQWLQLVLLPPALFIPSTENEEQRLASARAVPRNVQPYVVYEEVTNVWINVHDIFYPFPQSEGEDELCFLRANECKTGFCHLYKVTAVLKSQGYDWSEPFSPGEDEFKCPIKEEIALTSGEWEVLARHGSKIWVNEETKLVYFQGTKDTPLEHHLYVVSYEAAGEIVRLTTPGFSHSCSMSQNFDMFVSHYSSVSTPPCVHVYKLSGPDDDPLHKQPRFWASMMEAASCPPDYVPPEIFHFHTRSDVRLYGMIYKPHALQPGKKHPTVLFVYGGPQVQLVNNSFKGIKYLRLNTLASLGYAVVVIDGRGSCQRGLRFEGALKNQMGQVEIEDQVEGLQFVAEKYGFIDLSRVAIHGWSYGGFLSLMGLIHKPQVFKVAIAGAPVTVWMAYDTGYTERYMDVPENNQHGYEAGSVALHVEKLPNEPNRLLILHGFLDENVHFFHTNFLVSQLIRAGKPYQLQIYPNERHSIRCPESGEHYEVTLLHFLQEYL
UniProt O14641: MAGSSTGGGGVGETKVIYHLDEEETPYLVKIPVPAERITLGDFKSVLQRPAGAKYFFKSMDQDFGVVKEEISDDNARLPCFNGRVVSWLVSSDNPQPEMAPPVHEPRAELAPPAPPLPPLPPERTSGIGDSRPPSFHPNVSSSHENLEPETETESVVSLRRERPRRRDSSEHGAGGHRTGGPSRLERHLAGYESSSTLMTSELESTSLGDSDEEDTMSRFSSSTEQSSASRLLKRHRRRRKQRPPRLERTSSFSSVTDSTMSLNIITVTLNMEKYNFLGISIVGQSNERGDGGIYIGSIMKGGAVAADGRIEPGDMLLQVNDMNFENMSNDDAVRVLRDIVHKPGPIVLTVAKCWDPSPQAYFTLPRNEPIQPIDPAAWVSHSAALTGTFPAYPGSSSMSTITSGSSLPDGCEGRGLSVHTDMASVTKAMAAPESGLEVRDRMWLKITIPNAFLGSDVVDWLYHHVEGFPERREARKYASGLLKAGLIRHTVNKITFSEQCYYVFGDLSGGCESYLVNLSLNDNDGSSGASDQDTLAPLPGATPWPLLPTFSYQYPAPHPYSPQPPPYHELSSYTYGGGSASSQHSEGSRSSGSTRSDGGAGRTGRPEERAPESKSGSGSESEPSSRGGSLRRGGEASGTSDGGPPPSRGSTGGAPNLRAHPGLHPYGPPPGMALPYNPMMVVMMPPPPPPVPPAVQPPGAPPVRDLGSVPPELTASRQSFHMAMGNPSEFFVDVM
UniProt P60981: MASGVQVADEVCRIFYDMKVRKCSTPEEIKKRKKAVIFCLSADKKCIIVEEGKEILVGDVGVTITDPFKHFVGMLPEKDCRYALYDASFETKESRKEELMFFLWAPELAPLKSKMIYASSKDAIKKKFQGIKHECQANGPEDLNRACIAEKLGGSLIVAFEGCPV
UniProt P26641, whole entry, looked up: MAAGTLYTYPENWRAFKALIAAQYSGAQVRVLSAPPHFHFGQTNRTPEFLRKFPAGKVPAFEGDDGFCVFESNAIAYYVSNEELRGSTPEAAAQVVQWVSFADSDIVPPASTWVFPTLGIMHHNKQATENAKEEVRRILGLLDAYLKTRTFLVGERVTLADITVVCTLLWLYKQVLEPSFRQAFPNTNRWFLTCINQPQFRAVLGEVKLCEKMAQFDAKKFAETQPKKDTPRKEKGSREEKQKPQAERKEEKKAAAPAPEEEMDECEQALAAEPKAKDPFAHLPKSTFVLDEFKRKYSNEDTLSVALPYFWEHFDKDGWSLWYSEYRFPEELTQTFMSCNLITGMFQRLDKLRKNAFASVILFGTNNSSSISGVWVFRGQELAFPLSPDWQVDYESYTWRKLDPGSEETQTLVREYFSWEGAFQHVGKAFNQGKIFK
UniProt P24534: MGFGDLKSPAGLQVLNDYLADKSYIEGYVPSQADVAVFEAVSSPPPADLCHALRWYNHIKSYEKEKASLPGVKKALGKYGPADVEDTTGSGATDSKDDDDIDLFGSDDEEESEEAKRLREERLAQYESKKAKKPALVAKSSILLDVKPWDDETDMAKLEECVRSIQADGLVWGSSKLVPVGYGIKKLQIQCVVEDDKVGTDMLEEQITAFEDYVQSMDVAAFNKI
UniProt O95620: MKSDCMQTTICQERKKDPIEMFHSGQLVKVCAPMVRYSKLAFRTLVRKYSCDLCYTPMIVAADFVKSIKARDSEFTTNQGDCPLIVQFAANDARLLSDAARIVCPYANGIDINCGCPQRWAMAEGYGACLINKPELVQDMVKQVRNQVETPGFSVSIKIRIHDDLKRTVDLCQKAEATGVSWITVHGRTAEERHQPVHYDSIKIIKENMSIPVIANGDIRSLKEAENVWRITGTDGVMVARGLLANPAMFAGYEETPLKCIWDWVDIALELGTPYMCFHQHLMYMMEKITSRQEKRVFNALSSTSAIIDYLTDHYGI
UniProt O00418: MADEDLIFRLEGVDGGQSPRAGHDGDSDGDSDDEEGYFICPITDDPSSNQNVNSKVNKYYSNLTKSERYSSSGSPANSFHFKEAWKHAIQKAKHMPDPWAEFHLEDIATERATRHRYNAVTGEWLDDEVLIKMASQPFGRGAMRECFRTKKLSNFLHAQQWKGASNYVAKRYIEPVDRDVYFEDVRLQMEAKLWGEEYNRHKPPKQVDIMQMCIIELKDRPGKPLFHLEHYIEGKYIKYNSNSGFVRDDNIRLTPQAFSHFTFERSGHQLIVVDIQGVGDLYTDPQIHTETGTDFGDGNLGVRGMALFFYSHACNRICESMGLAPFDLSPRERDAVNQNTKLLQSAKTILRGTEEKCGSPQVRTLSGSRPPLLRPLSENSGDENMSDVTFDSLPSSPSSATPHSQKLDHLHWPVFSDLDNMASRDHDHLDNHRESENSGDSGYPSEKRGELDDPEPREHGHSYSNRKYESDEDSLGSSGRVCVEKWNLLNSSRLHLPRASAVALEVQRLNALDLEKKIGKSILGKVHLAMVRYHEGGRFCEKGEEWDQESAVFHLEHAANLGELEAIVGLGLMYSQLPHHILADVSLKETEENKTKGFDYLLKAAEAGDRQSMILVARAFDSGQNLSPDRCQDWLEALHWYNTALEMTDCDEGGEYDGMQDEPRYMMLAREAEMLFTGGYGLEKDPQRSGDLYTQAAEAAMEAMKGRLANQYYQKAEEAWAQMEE
UniProt Q99956: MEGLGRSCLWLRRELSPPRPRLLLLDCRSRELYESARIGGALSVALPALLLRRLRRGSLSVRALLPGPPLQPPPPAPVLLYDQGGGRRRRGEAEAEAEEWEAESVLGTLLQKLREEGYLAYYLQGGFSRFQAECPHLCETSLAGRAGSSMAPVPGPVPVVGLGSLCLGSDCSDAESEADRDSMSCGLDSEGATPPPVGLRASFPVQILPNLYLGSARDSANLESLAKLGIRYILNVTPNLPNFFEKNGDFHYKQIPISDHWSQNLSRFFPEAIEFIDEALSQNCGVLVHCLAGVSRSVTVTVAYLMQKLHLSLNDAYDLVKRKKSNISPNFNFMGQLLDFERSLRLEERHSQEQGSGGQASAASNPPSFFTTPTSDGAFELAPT
UniProt Q9BVJ7: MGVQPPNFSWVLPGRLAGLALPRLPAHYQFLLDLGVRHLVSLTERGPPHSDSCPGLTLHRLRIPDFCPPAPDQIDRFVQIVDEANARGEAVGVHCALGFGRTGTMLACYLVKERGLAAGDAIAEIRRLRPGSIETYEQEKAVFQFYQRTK
UniProt P30084: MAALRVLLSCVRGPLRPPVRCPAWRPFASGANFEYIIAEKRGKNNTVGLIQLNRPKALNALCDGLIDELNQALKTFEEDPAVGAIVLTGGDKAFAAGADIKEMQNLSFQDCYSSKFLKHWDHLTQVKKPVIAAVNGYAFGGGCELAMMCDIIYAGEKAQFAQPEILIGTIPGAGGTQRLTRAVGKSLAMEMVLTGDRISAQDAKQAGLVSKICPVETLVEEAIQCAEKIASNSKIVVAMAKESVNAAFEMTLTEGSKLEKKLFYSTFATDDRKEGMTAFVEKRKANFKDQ
UniProt O14576, whole entry, looked up: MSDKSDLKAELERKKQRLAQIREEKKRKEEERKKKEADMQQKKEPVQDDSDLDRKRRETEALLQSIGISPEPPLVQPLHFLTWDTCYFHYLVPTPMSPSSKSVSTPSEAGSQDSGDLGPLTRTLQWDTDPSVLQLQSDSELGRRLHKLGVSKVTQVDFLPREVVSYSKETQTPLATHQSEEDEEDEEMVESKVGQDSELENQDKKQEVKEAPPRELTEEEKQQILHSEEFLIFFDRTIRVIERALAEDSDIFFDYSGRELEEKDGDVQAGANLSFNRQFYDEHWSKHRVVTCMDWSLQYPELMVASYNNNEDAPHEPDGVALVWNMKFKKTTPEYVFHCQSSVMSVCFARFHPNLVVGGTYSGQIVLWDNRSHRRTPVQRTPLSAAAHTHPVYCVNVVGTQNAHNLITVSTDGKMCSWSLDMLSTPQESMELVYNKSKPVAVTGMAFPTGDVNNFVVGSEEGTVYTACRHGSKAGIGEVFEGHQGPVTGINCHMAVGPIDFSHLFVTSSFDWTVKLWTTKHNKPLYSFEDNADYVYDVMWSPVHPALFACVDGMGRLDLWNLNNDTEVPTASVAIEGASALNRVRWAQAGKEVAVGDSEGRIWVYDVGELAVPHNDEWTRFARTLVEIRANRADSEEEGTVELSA
UniProt Q5VUJ9: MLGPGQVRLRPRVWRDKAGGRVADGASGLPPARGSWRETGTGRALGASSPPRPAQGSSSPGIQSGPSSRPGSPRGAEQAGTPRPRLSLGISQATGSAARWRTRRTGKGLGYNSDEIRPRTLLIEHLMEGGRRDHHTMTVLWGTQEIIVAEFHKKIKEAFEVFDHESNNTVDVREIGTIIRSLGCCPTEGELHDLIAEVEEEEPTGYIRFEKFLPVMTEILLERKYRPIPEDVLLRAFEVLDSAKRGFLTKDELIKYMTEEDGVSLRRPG
UniProt Q7L8W6: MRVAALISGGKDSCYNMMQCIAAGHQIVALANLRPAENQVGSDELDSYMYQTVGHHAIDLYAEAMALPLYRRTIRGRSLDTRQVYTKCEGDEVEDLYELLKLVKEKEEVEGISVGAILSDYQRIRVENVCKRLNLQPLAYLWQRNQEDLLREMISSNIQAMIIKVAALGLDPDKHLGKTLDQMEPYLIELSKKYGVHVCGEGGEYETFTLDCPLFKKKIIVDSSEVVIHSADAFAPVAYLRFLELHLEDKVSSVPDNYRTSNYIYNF

Key:
Test in all cases: log2 fold change, soluble protein after heating vs DMSO (PISA); higher = thermal stabilisation; K562 lysate, 10 uM; active = over 0.2 and 3.5 SD of the protein, either way, in both replicates (recomputed)
[1] = compound: C1=CC=C(C=C1)[C@H](COC2=CC3=C(C=C2)NC(=O)N3)NC(=O)C4=CC=CN(C4=O)CC5=CC(=C(C=C5)F)F
Procedure, shortened: (§1)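 The values are log-two fold changes in thermal stability compared with solvent controls and come from duplicates. They were obtained by TMTpro 16plex LC-MS/MS, with channel sums equalised, on the supernatant after 21,000xg for 90 min. That supernatant came from crude K562 extract at 1 mg/mL protein treated with 10 μM compound for 30 min, heated for 3 min across 48°C-58°C, pooled and brought to 0.5% NP-40 at 4°C.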

[2] = compound: CC1=C(SC2=C1C(=N[C@H](C3=NN=C(N32)C)CC(=O)N)C4=CC=C(C=C4)Cl)C
Procedure, shortened: as §1

[3] = compound: CC1=C2C(=CC=C1)N=C(N(C2=O)C3=CC=CC=C3C)CN4C=NC5=C(N=CN=C54)N
Procedure, shortened: as §1

[4] = compound: Cc1sc2c(c1C)C(c1ccc(Cl)cc1)=N[C@@H](CC(=O)OC(C)(C)C)c1nnc(C)n1-2
Procedure, shortened: as §1

[5] = compound: c1ccc([C@@H]2C[C@H]2NC2CCNCC2)cc1
Procedure, shortened: as §1

Measured: log2 fold change

EIF2A (UniProt Q9BY44)
inactive: [1] 0 | [2] 0.018 | [3] -0.012 | [4] 0.008 | [5] -0.027

DPP9 isoform 2 (UniProt Q86TI2)
inactive: [1] 0.015 | [2] -0.001 | [3] -0.018 | [4] 0.012 | [5] 0.025

DVL2 (UniProt O14641)
inactive: [1] -0.012 | [2] -0.01 | [3] 0.032 | [4] 0.098 | [5] -0.017

EAF1 (UniProt Q96JC9)
inactive: [1] 0.034 | [2] -0.054 | [3] -0.031 | [4] 0.019 | [5] -0.055

DSTN (UniProt P60981)
inactive: [1] 0.043 | [2] -0.051 | [3] -0.016 | [4] 0.018 | [5] -0.06

EEF1G isoform 2 (UniProt P26641)
inactive: [1] -0.016 | [2] -0.017 | [3] -0.029 | [4] 0.096 | [5] 0.056

EEF1B2 (UniProt P24534)
inactive: [1] 0.018 | [2] 0.004 | [3] 0.025 | [4] -0.015 | [5] 0.011

DUS4L (UniProt O95620)
inactive: [1] 0.013 | [2] 0.025 | [3] 0.061 | [4] 0.055 | [5] -0.039

EEF2K (UniProt O00418)
inactive: [1] -0.018 | [2] 0 | [3] -0.026 | [4] -0.018 | [5] 0.023

DUSP9 (UniProt Q99956)
inactive: [1] -0.106 | [2] 0.01 | [3] 0.097 | [4] 0.119 | [5] 0.02

DUSP23 (UniProt Q9BVJ7)
inactive: [1] -0.164 | [2] -0.001 | [3] 0.033 | [4] 0.003 | [5] -0.072

ECHS1 (UniProt P30084)
inactive: [1] -0.018 | [2] 0.024 | [3] -0.008 | [4] 0.035 | [5] 0.023

DUSP12 (UniProt V9GYV5)
inactive: [5] 0.048

Reprinted from above (2 entries):
DUSP9 (UniProt Q99956)
inactive: [1] -0.106 | [2] 0.01 | [3] 0.097 | [4] 0.119 | [5] 0.02

DUSP23 (UniProt Q9BVJ7)
inactive: [1] -0.164 | [2] -0.001 | [3] 0.033 | [4] 0.003 | [5] -0.072

Additional entries follow:

DSCAML1 (UniProt Q8TD84)
inactive: [1] 0.051 | [2] -0.036 | [5] -0.129

DYNC1I1 (UniProt O14576)
inactive: [3] -0.101 | [4] -0.055 | [5] 0.129

EFCAB2 isoform 2 (UniProt Q5VUJ9)
inactive: [5] -0.116

DPH6 (UniProt Q7L8W6)
inactive: [1] 0.01 | [2] -0.003 | [3] 0.048 | [4] 0.052 | [5] 0.046
